# Experimental data taken from PubChem BioAssay (NCATS).
# Inconclusive means that the source gave no clear call. Such entries were picked first, then a sample of the others. Where the call is inconclusive, the potency comes from a doubtful curve fit. Activity calls are given as the source filed them. Calls follow the shape of the dose curve; as a rule, active = well fitted curve in the direction sought with a large enough effect; inconclusive = small, poorly fitted or top-dose-only effect, or another doubt; inactive = no such curve, though single readings can be large; an effect the other way counts as inactive or inconclusive.
# Assays:
# [1] = Quantitative highthroughput screen to assess conditional lethalithy of NOMO1 cells grown in RPMI1640 with untreated serum (RPMI+s) (AID 1963876); conditions: NOMO1 AML cells in RPMI+serum, CellTiter-Glo viability, 48 h; viability: at 45.8 µM (top of the series); also: nearly all actives have a fitted effect of over 35% in size
# In short: (§1)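 Each medium arm—HPLM with 10% dialyzed FBS, or RPMI1640 with 5 mM glucose and 10% untreated or dialyzed FBS—was screened against an 11-point, 3-fold compound titration for 48 h at 37 °C, with CellTiter-Glo luminescence as endpoint.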
# [2] = Quantitative highthroughput screen to assess conditional lethalithy of P12 Ichikawa cells grown in RPMI1640 with dialyzed fetal bovine serum (RPMI+ds) (AID 1963880); conditions: Potency: P12-Ichikawa viability; also: nearly all actives have a fitted effect of over 35% in size
# In short: as §1
# [3] = Quantitative highthroughput screen to assess conditional lethalithy of P12 Ichikawa cells grown in RPMI1640 with untreated serum (RPMI+s) (AID 1963881); conditions: Potency: viability; also: nearly all actives have a fitted effect of over 35% in size
# In short: as §1
# [4] = Quantitative highthroughput screen to assess conditional lethalithy of SEM cells grown in Human Plasma-Like Medium with dialyzed fetal bovine serum (HPLM+ds) (AID 1963882); also: nearly all actives have a fitted effect of over 35% in size
# In short: as §1
# [5] = Quantitative highthroughput screen to assess conditional lethalithy of SEM cells grown in RPMI1640 with dialyzed fetal bovine serum (RPMI+ds) (AID 1963884); conditions: SEM B-ALL cells, RPMI+dialyzed FBS, CellTiter-Glo viability, 48 h; viability: at 45.8 µM (top of the series); also: nearly all actives have a fitted effect of over 35% in size
# In short: as §1
# [6] = Quantitative highthroughput screen to assess conditional lethalithy of NOMO1 cells grown in Human Plasma-Like Medium with dialyzed fetal bovine serum (HPLM+ds) (AID 1963878); conditions: NOMO1 AML cells in HPLM+ds, CellTiter-Glo viability, 48 h; viability: at 45.8 µM (top of the series); also: nearly all actives have a fitted effect of over 35% in size
# In short: as §1
# [7] = Quantitative highthroughput screen to assess conditional lethalithy of SEM cells grown in RPMI1640 with unreated serum (RPMI+s) (AID 1963883); conditions: SEM B-ALL cells, CellTiter-Glo viability, 48 h; viability: at 45.8 µM (top of the series); also: nearly all actives have a fitted effect of over 35% in size
# In short: as §1
# [8] = Quantitative highthroughput screen to assess conditional lethalithy of P12 Ichikawa cells grown in Human Plasma-Like Medium with dialyzed fetal bovine serum (HPLM+ds) (AID 1963879); conditions: Potency: viability; also: nearly all actives have a fitted effect of over 35% in size
# In short: as §1
# [9] = Cellular viability qHTS for adrenocortical cancer (ACC) cell line NCI-H295R (AID 1963990); conditions: CellTiter-Glo ATP luminescence, 48 h; series mostly up to 46.1 µM; also: nearly all actives have a fitted effect of over 60% in size
# In short: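 CellTiter-Glo ATP luminescence, read 48 h after compound addition, measured viability of NCI-H295R adrenocortical cells grown serum-free with ITS. Final concentrations spanned up to 46 uM. Data normalized to DMSO and doxorubicin, fitted for IC50 and maximal response.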
# [10] = Cellular viability qHTS for adrenocortical cancer (ACC) cell line SW-13 (AID 1963989); conditions: SW-13 ACC cells viability, CellTiter-Glo, 48 h; activity (max response): stronger effect = lower value; also: nearly all actives have a fitted effect of over 65% in size
# In short: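 Viability was read as CellTiter-Glo luminescence after 48 h compound treatment (up to 46 uM final) of SW-13 cells grown serum-free; titration curves were fit with a four-parameter logistic model to give IC50 and efficacy.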
# Potency is read from the fitted curve at half-maximal effect.
structure (smiles),measurement,setting,value
CC=C(C)C(=O)O[C@H]1C(C)=C[C@]23C(=O)[C@@H](C=C(CO)[C@@H](O)[C@]12O)[C@H]1[C@@H](C[C@H]3C)C1(C)C,Potency,[1],"inconclusive: 0.0469 µM [cytotoxic, full curve]"
same,Potency,[2],"inconclusive: 0.0083 µM [cytotoxic, full curve]"
same,Potency,[3],active: 0.0066 µM
same,Potency,[4],"inconclusive: 2.64 µM [cytotoxic, partial curve, poor fit]"
same,Potency,[5],"inconclusive: 20.9 µM [cytotoxic, partial curve]"
NC(=O)NN=Cc1ccc([N+](=O)[O-])o1,Potency,[1],"inconclusive: 14.8 µM [rising, single point]"
same,Potency,[6],inactive
same,Potency,[5],inactive
CC[C@]1(O)C[C@@H]2CN(CCc3c([nH]c4ccccc34)[C@@](C(=O)OC)(c3cc4c(cc3OC)N(C=O)[C@@H]3C45CCN4CC=C[C@](CC)([C@H]45)[C@@H](OC(C)=O)[C@]3(O)C(=O)OC)C2)C1 (stereo partly drawn),Potency,[1],inactive
same,Potency,[6],inactive
same,Potency,[4],"inconclusive: 0.0021 µM [rising, full curve, poor fit]"
same,Potency,[5],"inconclusive: 0.0033 µM [rising, full curve, poor fit]"
Cc1cc(-c2nnc3n2CCCCC3)c(C)n1-c1ccccc1,Potency,[1],inactive
same,Potency,[6],inactive
same,Potency,[7],inconclusive: 0.001 µM
same,Potency,[5],inactive
CCC1=C[C@@H]2CN(C1)Cc1c([nH]c3ccccc13)[C@@](C(=O)OC)(c1cc3c(cc1OC)N(C)[C@@H]1[C@@](O)(C(=O)OC)[C@H](OC(C)=O)[C@]4(CC)C=CCN5CC[C@]31[C@@H]54)C2,Potency,[1],"inconclusive: 0.0743 µM [cytotoxic, full curve]"
same,Potency,[6],"inconclusive: 0.0296 µM [cytotoxic, full curve]"
same,Potency,[2],"inconclusive: 0.0526 µM [cytotoxic, full curve]"
same,Potency,[4],active: 0.059 µM
same,Potency,[7],active: 0.0209 µM
same,Potency,[5],"inconclusive: 0.0469 µM [cytotoxic, full curve]"
CC(C=CC1=C(C)CCCC1(C)C)=CC=CC(C)=CC(=O)O,Potency,[1],"inconclusive: 16.6 µM [cytotoxic, partial curve]"
same,Potency,[2],inactive
same,Potency,[3],"inconclusive: 18.7 µM [cytotoxic, partial curve, poor fit] and inactive"
same,Potency,[5],inactive
C=CCc1cccc(C=NNC(=O)CN2CCN(Cc3ccccc3)CC2)c1O,Potency,[1],"inconclusive: 26.4 µM [cytotoxic, single point]"
same,Potency,[6],active: 18.7 µM
same,Potency,[5],active: 8.33 µM
NC(=O)c1ncn([C@@H]2O[C@H](CO)[C@@H](O)[C@@H]2O)c1O,Potency,[1],inactive
same,Potency,[8],inactive
CC1(C)S[C@H]2[C@H](NC(=O)[C@@H](N)c3ccc(O)cc3)C(=O)N2[C@@H]1C(=O)O,Potency,[1],active: 8.33 µM
same,Potency,[8],active: 7.43 µM
same,Potency,[5],inactive
C=CC(=O)Nc1ccc2ncnc(Nc3ccc(OCc4cccc(F)c4)c(Cl)c3)c2c1,Potency,[1],active: 2.64 µM
same,Potency,[6],active: 2.35 µM
same,Potency,[9],active: 6.31 µM
COc1ccc(C=Cc2cc(OC)c(OC)c(OC)c2)cc1O,Potency,[1],inactive
same,Potency,[2],"inconclusive: 0.0047 µM [cytotoxic, full curve, poor fit]"
same,Potency,[4],"inconclusive: 0.743 µM [cytotoxic, full curve, poor fit]"
same,Potency,[7],inactive
O=C(Nc1cc(C(F)(F)F)cc(C(F)(F)F)c1)c1cc(Cl)ccc1O,Potency,[1],active: 3.32 µM
same,Potency,[6],active: 2.96 µM
same,Potency,[4],active: 4.18 µM
same,Potency,[7],active: 2.96 µM
same,Potency,[5],active: 4.18 µM
same,Potency,[9],active: 1.12 µM
O=c1[nH]c(=O)n([C@H]2C[C@@H](O)[C@@H](CO)O2)cc1C=CBr,Potency,[1],inactive
same,Potency,[6],"inconclusive: 6.62 µM [cytotoxic, partial curve]"
same,Potency,[2],inactive
same,Potency,[4],"inconclusive: 5.9 µM [cytotoxic, partial curve]"
same,Potency,[5],inactive
Cc1[nH]c2ccccc2c1CCNCc1ccc(C=CC(=O)NO)cc1,Potency,[1],active: 0.743 µM
same,Potency,[8],active: 0.59 µM
same,Potency,[2],active: 0.662 µM
same,Potency,[4],active: 0.209 µM
same,Potency,[7],active: 0.264 µM
same,Potency,[5],active: 0.264 µM
Nc1ccc(S(=O)(=O)Nc2ncccn2)cc1,Potency,[1],inactive
same,Potency,[2],inactive
same,Potency,[4],inactive
same,Potency,[7],inactive
Clc1ccc(CCC(Cn2ccnc2)Sc2c(Cl)cccc2Cl)cc1 (stereo not drawn),Potency,[1],inactive
same,Potency,[8],inactive
same,Potency,[3],"inconclusive: 26.4 µM [cytotoxic, single point]"
same,Potency,[7],"inconclusive: 26.4 µM [cytotoxic, single point]"
same,Potency,[5],"inconclusive: 37.2 µM [cytotoxic, single point]"
CC[C@H](NC(=O)[C@H](C)NC)C(=O)N1C[C@@H](O)C[C@H]1Cc1c(-c2[nH]c3cc(F)ccc3c2C[C@H]2C[C@H](O)CN2C(=O)[C@H](CC)NC(=O)[C@H](C)NC)[nH]c2cc(F)ccc12,Potency,[1],active: 0.935 µM
same,Potency,[6],"inconclusive: 1.18 µM [cytotoxic, full curve]"
same,Potency,[7],"inconclusive: 5.26 µM [cytotoxic, full curve, poor fit]"
same,Potency,[5],"inconclusive: 6.62 µM [cytotoxic, full curve]"
CC1(C)C(=O)N(CCN2CCC(C(=O)c3ccc(F)cc3)CC2)c2ccccc21,Potency,[1],"inconclusive: 23.5 µM [cytotoxic, single point]"
same,Potency,[6],"inconclusive: 33.2 µM [cytotoxic, single point]"
same,Potency,[2],"inconclusive: 8.33 µM [cytotoxic, full curve, poor fit]"
same,Potency,[7],inactive
CCOC(=O)c1ccc(OC(=O)CCCCCN=C(N)N)cc1,Potency,[1],active: 3.32 µM
same,Potency,[2],"inconclusive: 5.26 µM [cytotoxic, full curve]"
same,Potency,[4],"inconclusive: 11.8 µM [cytotoxic, full curve]"
same,Potency,[7],"inconclusive: 2.96 µM [cytotoxic, full curve]"
same,Potency,[5],"inconclusive: 8.33 µM [cytotoxic, full curve]"
same,Potency,[10],"inconclusive: 29.1 µM [cytotoxic, single point]"
COc1cc([C@@H]2c3cc4c(cc3[C@@H](O[C@@H]3O[C@@H]5CO[C@@H](C)O[C@@H]5[C@H](O)[C@@H]3O)[C@H]3COC(=O)[C@H]23)OCO4)cc(OC)c1O,Potency,[1],active: 2.09 µM
same,Potency,[6],active: 1.87 µM
same,Potency,[4],active: 0.526 µM
same,Potency,[10],active: 11.2 µM
COc1ccc(-c2oc3c(CC=C(C)C)c(O)cc(O)c3c(=O)c2O)cc1,Potency,[1],inactive
same,Potency,[8],"inconclusive: 10.5 µM [cytotoxic, partial curve, poor fit]"
same,Potency,[3],"inconclusive: 11.8 µM [cytotoxic, single point]"
same,Potency,[7],inactive
COc1ccc(C(C)=O)c(O)c1,Potency,[1],active: 2.64 µM
same,Potency,[8],"inconclusive: 8.33 µM [cytotoxic, full curve]"
same,Potency,[2],"inconclusive: 9.35 µM [cytotoxic, full curve]"
same,Potency,[4],inactive
same,Potency,[7],inactive
CN[C@H](CC(C)C)C(=O)N[C@H]1C(=O)N[C@@H](CC(N)=O)C(=O)N[C@@H]2C(=O)N[C@H]3C(=O)N[C@H](C(=O)N[C@H](C(=O)O)c4cc(O)cc(O)c4-c4cc3ccc4O)[C@H](O)c3ccc(c(Cl)c3)Oc3cc2cc(c3O[C@@H]2O[C@H](CO)[C@@H](O)[C@H](O)[C@@H]2O[C@H]2C[C@](C)(N)[C@H](O)[C@H](C)O2)Oc2ccc(cc2Cl)[C@H]1O,Potency,[1],inactive
same,Potency,[2],"inconclusive: 29.6 µM [cytotoxic, single point]"
same,Potency,[3],"inconclusive: 20.9 µM [cytotoxic, partial curve]"
same,Potency,[7],inactive
O=C(NNC(=O)c1ccc(CNS(=O)(=O)c2ccc(F)c(Cl)c2)cc1)c1ccccc1,Potency,[1],inactive
same,Potency,[8],inactive
same,Potency,[2],inactive
same,Potency,[3],inactive
same,Potency,[7],inactive
same,Potency,[5],"inconclusive: 37.2 µM [cytotoxic, single point]"
Cc1cccc(C#Cc2ccccc2)n1,Potency,[1],inactive
same,Potency,[2],inactive
same,Potency,[3],inactive
same,Potency,[5],active: 13.2 µM
CCN(CC)CCNC(=O)c1c(C)[nH]c(C=C2C(=O)Nc3ccc(F)cc32)c1C,Potency,[1],active: 0.303 µM
same,Potency,[6],active: 0.171 µM
same,Potency,[2],active: 0.34 µM
same,Potency,[4],"inconclusive: 0.215 µM [cytotoxic, full curve]"
same,Potency,[7],"inconclusive: 0.0959 µM [cytotoxic, full curve]"
CCC(CC)[C@H](NC(C)=O)[C@@H]1[C@H](O)[C@@H](C(=O)O)C[C@@H]1N=C(N)N,Potency,[1],inactive
same,Potency,[2],inactive
same,Potency,[3],inactive
O=C(NCc1ccccc1)[C@H](Cc1ccccc1)NC(=O)[C@@H]1O[C@@H]1C(=O)NCCc1ccc(O)cc1,Potency,[1],inactive
same,Potency,[6],inactive
same,Potency,[2],inactive
same,Potency,[7],"inconclusive: 26.4 µM [cytotoxic, single point]"
same,Potency,[5],"inconclusive: 23.5 µM [cytotoxic, single point]"
CCNC(=O)[C@H]1O[C@@H](n2cnc3c(N)nc(NCCc4ccc(CCC(=O)O)cc4)nc32)[C@H](O)[C@H]1O,Potency,[1],inactive
same,Potency,[6],inactive
same,Potency,[4],inactive
same,Potency,[7],"inconclusive: 23.5 µM [cytotoxic, single point]"
same,Potency,[5],inactive
CC=C1NC(=O)[C@H]2CSSCCC=C[C@H](CC(=O)N[C@H](C(C)C)C(=O)N2)OC(=O)[C@H](C(C)C)NC1=O,Potency,[1],active: 0.0418 µM
same,Potency,[8],active: 0.0372 µM
same,Potency,[2],active: 0.0372 µM
same,Potency,[5],active: 0.0372 µM
C[C@]12CC[C@@H]3c4ccc(O)cc4CC[C@H]3[C@H]1C[C@@H](O)[C@H]2O,Potency,[1],inactive
same,Potency,[2],inactive
same,Potency,[7],inactive
C=CCNC1=C2C[C@@H](C)C[C@H](OC)[C@@H](O)[C@@H](C)C=C(C)[C@H](OC(N)=O)[C@@H](OC)C=CC=C(C)C(=O)NC(=CC1=O)C2=O,Potency,[1],active: 5.26 µM
same,Potency,[2],"inconclusive: 3.72 µM [cytotoxic, full curve]"
same,Potency,[3],"inconclusive: 3.32 µM [cytotoxic, full curve]"
COc1cc(Nc2ncc(F)c(Nc3ccc4c(n3)NC(=O)C(C)(C)O4)n2)cc(OC)c1OC,Potency,[1],active: 5.9 µM
same,Potency,[6],active: 4.69 µM
same,Potency,[3],active: 5.26 µM
same,Potency,[4],active: 1.66 µM
same,Potency,[5],active: 1.66 µM
same,Potency,[10],"inconclusive: 3.16 µM [cytotoxic, single point]"
same,Potency,[9],"inconclusive: 3.16 µM [cytotoxic, partial curve]"
